Test results published in PMC6706415.
No constants are given. Whether binding was seen depends on the method and setting. Some entries that bind do so weakly or less than the wild type.

Biological target: T1, β casein, P02666
T1 chain: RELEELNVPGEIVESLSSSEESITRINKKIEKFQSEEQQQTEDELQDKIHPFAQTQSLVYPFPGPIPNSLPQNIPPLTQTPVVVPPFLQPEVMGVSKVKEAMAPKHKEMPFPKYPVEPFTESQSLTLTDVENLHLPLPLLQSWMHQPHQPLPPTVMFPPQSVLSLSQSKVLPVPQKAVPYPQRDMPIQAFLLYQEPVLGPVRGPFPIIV
Assay: TEM + dynamic light scattering; βCas alone in aqueous medium; micelles; both purified
Conditions: remark: other sources report otherwise

binding: binds
B1: β casein, P02666 16-224 (protein)
chain: T1 chain
